Laboratory results: PubChem BioAssay AID1259254 (NCATS, 2017)

Purpose: 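Gene knock-downs that lead to re-replication, shown by excess G2 DNA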 (primary screen)
Cells: human HCT116 colorectal cancer cells
Reagents: single siRNA against human genes
Duration: 3 days
Measurement: 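Nuclei stained with Hoechst and imaged; cell-cycle phase assigned by DNA content; G2 share scaled per plate, non-targeting siRNA 0%, GMNN siRNA 100%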
Reading the numbers: G2 robust z-score: higher = more G2 cells, more excess DNA replication
Rule for the call: 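Active siRNAs have a G2 robust z of 5 or more median absolute deviations over the median, which in these data means about 38% or higher of GMNN control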
In all, the deposit lists about 59,000 reagents; this is an unselected part. About 1,550 of all reagents (2.6%) count as active. 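G2 share is only a proxy for re-replication; each gene was hit by three separate siRNAs, and active genes were retested.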 Entries without a mark were called inactive. The numbers tell different reagents against one gene apart. Further read-outs or replicates are left out here. Reagent sequences are not shown. Not given: the amount of reagent.

target | reagent no. | G2 robust z-score
DNMT3L | 1 | 3.94
DNMT3L | 2 | -1.01
DNMT3L | 3 | -0.374
TXNRD2 | 1 | -0.977
TXNRD2 | 2 | -0.294
TXNRD2 | 3 | -0.251
CCL25 | 1 | -0.948
CCL25 | 2 | -0.602
CCL25 | 3 | -0.13
PDK2 | 1 | -0.197
PDK2 | 2 | 0.912
PDK2 | 3 | -0.766
BRD2 | 1 | 2.84
BRD2 | 2 | 2.67
BRD2 | 3 | 4.13
SLC25A15 | 1 | -0.706
SLC25A15 | 2 | 4.42
SLC25A15 | 3 | -1.13
KCNG4 | 1 | -0.86
KCNG4 | 2 | 0.272
KCNG4 | 3 | 1.21
ZNF799 | 1 | 0.9
ZNF799 | 2 | -0.268
ZNF799 | 3 | 2.31
FMOD | 1 | 1.89
FMOD | 2 | 1.81
FMOD | 3 | -0.626
SWSAP1 | 1 | -0.533
SWSAP1 | 2 | 2.07
SWSAP1 | 3 | -0.476
UQCRFS1 | 1 | -0.774
UQCRFS1 | 2 | -1.24
UQCRFS1 | 3 | -0.757
PADI4 | 1 | -0.969
PADI4 | 2 | 0.752
PADI4 | 3 | -0.754
CENPBD1P | 1 | 2.73
CENPBD1P | 2 | -0.24
CENPBD1P | 3 | 0.0943

In a second layout: results already given
PDK2 #2
- G2 robust z-score: 0.912

PDK2 #3
- G2 robust z-score: -0.766

BRD2 #1
- G2 robust z-score: 2.84

BRD2 #2
- G2 robust z-score: 2.67

BRD2 #3
- G2 robust z-score: 4.13

More reagents:
target | reagent no. | G2 robust z-score
TTC9C | 1 | -0.591
TTC9C | 2 | -0.423
TTC9C | 3 | -0.156
LGALS9 | 1 | 0.176
LGALS9 | 2 | 0.339
LGALS9 | 3 | -0.167
SNX17 | 1 | 0.78
SNX17 | 2 | 0.212
SNX17 | 3 | -0.445
ZDHHC12 | 1 | 0.165
ZDHHC12 | 2 | 0.288
ZDHHC12 | 3 | 0.482
TCP10L | 1 | -1.12
TCP10L | 2 | -0.455
TCP10L | 3 | -0.777
RIMBP2 | 1 | 0.379
RIMBP2 | 2 | -0.377
RIMBP2 | 3 | -0.279
IFNGR2 | 1 | -1.54
IFNGR2 | 2 | 0.266
IFNGR2 | 3 | -0.226
CCNJ | 1 | -0.698
CCNJ | 2 | -0.191
CCNJ | 3 | 3.09
TMEM106A | 1 | -0.188
TMEM106A | 2 | -0.273
TMEM106A | 3 | 0.397
SNX21 | 1 | -0.67
SNX21 | 2 | -0.0408
SNX21 | 3 | 0.607
